The values that follow come from PMC7862700.

The entries are a selection whose mix differs from that of the whole data set. At the low end of the ranking, values are background and their order means little.

The test has as its target SPI1 (UniProt P17947). The experiment in a line: DAPPL (digital affinity profiling via proximity ligation, sequencing). The settings on record: 10 mM Tris-HCl pH 7.5, 50 mM NaCl, 1 mM DTT, 4% glycerol, room temperature, 30 min; GST-TFs on glutathione beads, 16-mer random dsDNA library, 0.1% …; high values mean tight binding; double strand, one strand shown; scale: fold enrichment (6-mer frequency, TF over GST control).
Turning to CTTGTG, the binding signal turned out to be 1.46.

Take TAAATA: the binding signal was 1.29.

CTTCCT registered a binding signal of 5.09.

For the sequence GCTTAG, the binding signal came to 1.1.

With CTTAGA, the binding signal was 1.11.

Sequence TAAAAT had a binding signal of 1.25.

In turn, ATGCAA showed a binding signal of 1.2.

Turning to TGGTTT, the binding signal worked out at 1.66.

Consider CGCTTT, for which the binding signal was 1.59.

In the case of AATCCC, the binding signal came to 1.26.

ACAGAT registered a binding signal of 0.962.

With ACATCA, the binding signal is 1.13.

In the case of CATATA, the binding signal stood at 1.06.

In turn, ACTTTA registered a binding signal of 1.33.

The sequence CAAATA came in with a binding signal of 1.14.

The sequence TGTGTT displayed a binding signal of 0.94.

AACTAA: the binding signal was 1.38.

In the case of ATTTTT, the binding signal was 1.18.

Sequence TCTGTT had a binding signal of 1.43.

CACTCT came in with a binding signal of 1.34.

In turn, TAATAA gave a binding signal of 1.09.

The sequence ATCGAA registered a binding signal of 1.13.

CGTCTA returned a binding signal of 1.25.

TATTTC: the binding signal is 2.02.

GGTCCC yielded a binding signal of 1.1.

Sequence TAATGA yielded a binding signal of 1.22.

On to GATGCT, for which the binding signal was determined as 1.23.

CCTATT came in with a binding signal of 1.55.

For CACTTC, the binding signal turned out to be 5.56.

In turn, GACATC yielded a binding signal of 1.26.

On to CGCTAG, for which the binding signal was 1.09.

CCGTCC came in with a binding signal of 1.21.

Sequence TTGCGG displayed a binding signal of 1.61.

CCATAT registered a binding signal of 1.16.

ACGATC displayed a binding signal of 1.
